Results taken from PubChem BioAssay AID1671190 (National Center for Advancing Translational Sciences (NCATS), 2021).
The whole screen tested about 580,000 compounds, of which about 6,100 (1.1%) were called active. This list was built around the results that the source calls inconclusive (neither active nor inactive); the mix of calls is not that of the screen. Calls follow the shape of the dose curve; as a rule, active = well fitted inhibition curve with a large enough effect; inconclusive = small, poorly fitted or top-dose-only effect, or another doubt; inactive = no such curve, though single readings can be large or run the other way. A potency beside an inconclusive call is a rough fit, not a confirmed value.
Potency is read from the fitted curve at half-maximal effect.

Amino acid sequences for entries named in this document (tags omitted). A change or cut given only in a name is not applied to a line headed by its entry.
UniProt P18054: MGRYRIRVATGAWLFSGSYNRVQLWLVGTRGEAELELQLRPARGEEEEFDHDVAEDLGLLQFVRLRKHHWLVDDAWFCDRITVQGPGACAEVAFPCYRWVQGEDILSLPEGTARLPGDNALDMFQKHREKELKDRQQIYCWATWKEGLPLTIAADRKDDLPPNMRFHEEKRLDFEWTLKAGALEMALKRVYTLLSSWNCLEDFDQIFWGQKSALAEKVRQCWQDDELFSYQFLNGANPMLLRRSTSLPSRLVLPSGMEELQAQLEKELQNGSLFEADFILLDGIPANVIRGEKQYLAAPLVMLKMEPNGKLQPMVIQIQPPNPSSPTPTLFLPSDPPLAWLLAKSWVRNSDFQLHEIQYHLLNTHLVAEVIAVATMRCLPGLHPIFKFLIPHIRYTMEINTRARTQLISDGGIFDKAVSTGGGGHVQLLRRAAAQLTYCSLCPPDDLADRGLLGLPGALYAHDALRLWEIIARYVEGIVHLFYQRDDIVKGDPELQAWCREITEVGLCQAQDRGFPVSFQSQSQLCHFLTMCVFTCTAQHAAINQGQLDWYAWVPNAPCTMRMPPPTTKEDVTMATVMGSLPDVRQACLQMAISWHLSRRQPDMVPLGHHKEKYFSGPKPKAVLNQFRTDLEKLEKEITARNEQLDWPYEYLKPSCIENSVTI

The compounds below were run against Polyunsaturated fatty acid lipoxygenase ALOX12 (Homo sapiens) (UniProt P18054) (assay: Primary qHTS assay for inhibitors of human arachidonate 12S-lipoxygenase (ALOX12): Round 2). Settings: purified 12hLO, xylenol orange hydroperoxide absorbance; series mostly up to 108 µM.
Summary of the method: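 Purified human 12hLO at 150 nM in 25 mM Hepes, 0.01% Triton X-100, pH 7.0, preincubated 15 min at room temperature with compound. Reaction started with 40 uM arachidonic acid, 30 min at room temperature. Hydroperoxide measured by Fe-xylenol orange, 573/405 nm absorbance ratio.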
For `CCOC(=O)c1cc(S(=O)(=O)Nc2ccc(OC(F)(F)F)cc2)[nH]n1`, the Potency was inconclusive: 39.8 µM [inhibitor, partial curve].
For `CCOC(=O)C1CCN(C(=O)CN2C(=O)c3ccccc3S2(=O)=O)CC1`, the Potency was inconclusive: 79.4 µM [inhibitor, single point].
With `Cc1cc(OCCN2CCOCC2)c(C)c2c1CC[C@@H]([C@H](C)C(=O)NC(C)(C)C)C2` the Potency was “inactive”.
`Cc1ccc(CN2CCN3C(=O)N(C4CCOCC4)C[C@H]3C2)cc1` was tested, and the Potency was “inactive”.
With `Cc1ccccc1S(=O)(=O)Nc1nc2ccccc2nc1N1CCc2ccccc2C1` the Potency was “inactive”.
For `Cc1cc(-c2ccco2)n(CC(=O)NCc2ccco2)n1`, the Potency was inconclusive: 3.16 µM [inhibitor, full curve, poor fit].
For `COc1ccc(CNC(=O)c2ccc3c(c2)N(C(=O)c2ccc(F)cc2)CC3)cc1`, the Potency was “inactive”.
With `Fc1cccc(NCc2ccoc2)c1` the Potency was inconclusive: 39.8 µM [inhibitor, partial curve, poor fit].
For `COC(=O)N(C)CC(=O)NCc1cccc(C)c1`, the Potency was “inactive”.
In the case of `O=C(O)c1ccc(-n2c(/C=C/c3cccc(O)c3)nc3ccccc3c2=O)cc1`, the Potency is reported as inconclusive: 44.7 µM [inhibitor, partial curve, poor fit].
For `CC(C)/C=N/NC(=O)c1ccc[n+]([O-])c1`, the Potency was inconclusive: 2.51 µM [inhibitor, full curve, poor fit].
For `COc1ccc(CC(N)c2csc(NC(=O)NC(c3ccccc3)c3ccccc3)n2)cc1` (centres undefined), the Potency was inconclusive: 50.1 µM [inhibitor, partial curve, poor fit].
In the case of `CN1CCN(c2ncc3nc(-c4cccs4)c(=O)n(CCC#N)c3n2)CC1`, the Potency is reported as inconclusive: 39.8 µM [inhibitor, partial curve, poor fit].
In the case of `O=C(c1ccc(F)c(F)c1)N1CCC([C@@H]2CNC[C@H]2CO)CC1`, the Potency is reported as “inactive”.
For `CN(C)c1cccc(N=C2C=C(N3CCOCC3)CC(C)(C)C2)c1`, the Potency was inconclusive: 3.16 µM [inhibitor, full curve, poor fit].
With `CC(C)c1noc(C(C)Sc2nc(-c3ccco3)nc3ccccc23)n1` (centres undefined) the Potency was inconclusive: 44.7 µM [inhibitor, partial curve, poor fit].
With `COc1ccc(C(=O)c2c3ccc([N+](=O)[O-])cc3[n+]([O-])n2CCCC(N)=O)cc1` the Potency was inconclusive: 8.91 µM [inhibitor, full curve].
With `NC(=S)Nn1c(-c2ccccc2)nc2ccccc2c1=O` the Potency was inconclusive: 3.98 µM [inhibitor, full curve].
For `CCOC(=O)C1=C(CN2CCc3ccccc32)NC(=O)NC1c1cc(C)ccc1C` (centres undefined), the Potency was inconclusive: 35.5 µM [inhibitor, partial curve, poor fit].
`CCOc1cc2[nH]c(=S)n(CCN3CCCCC3CC)c(=O)c2cc1OCC` (centres undefined) was tested, and the Potency was inconclusive: 89.1 µM [inhibitor, single point].
`CCCC(c1nnnn1CCOC)N1CCN(Cc2ccccc2)CC1` (centres undefined) was tested, and the Potency was inconclusive: 6.31 µM [inhibitor, full curve, poor fit].
`Cc1cc(C)c2c(=O)n3c(nc2c1)C(CC(C)C)NC(=O)c1cccnc1-3` (centres undefined) was tested, and the Potency was inconclusive: 8.91 µM [inhibitor, full curve, poor fit].
For `CN1C[C@H](O)C[C@H]1c1nc(-c2ccc3c(c2)OCO3)no1`, the Potency was “inactive”.
For `Cc1ccccc1N(CC(N)=O)S(C)(=O)=O`, the Potency was “inactive”.
With `O=C(NCC1CCCN(Cc2nccs2)C1)c1cccc2ccccc12` (centres undefined) the Potency was “inactive”.
For `COc1cc2ncnc(NCCCN3CCOCC3)c2cc1OC`, the Potency was inconclusive: 126 µM [inhibitor, single point].
For `c1ccc(-n2cc(CN3CCCCC3c3ccccn3)nn2)cc1` (centres undefined), the Potency was active: 20 µM.
`CC(C)c1ccc(-c2nonc2NC(=O)c2cc(=O)c3ccccc3o2)cc1` was tested, and the Potency was “inactive”.
`Cc1cc2c(cc1C)-n1nnnc1C(N1CCCC1)C(=O)N2` (centres undefined) was tested, and the Potency was inconclusive: 141 µM [inhibitor, partial curve, poor fit].
`Cc1ccc(C)c(S(=O)(=O)Nc2cc3c4c(c2)CCC(=O)N4CCC3)c1` was tested, and the Potency was inconclusive: 89.1 µM [inhibitor, single point].
With `CNCC(=O)N1C[C@@H](COc2cccnc2)[C@H](c2ccccn2)C1` the Potency was inconclusive: 25.1 µM [inhibitor, single point].
For `CCOC(=O)N1CCN(CCC(=O)Nc2cccc(Cl)c2C)CC1`, the Potency was inconclusive: 0.199 µM [inhibitor, full curve, poor fit].
`CC(C)NC(=O)C1C(c2ccccc2)=Nc2ccccc2N1C(=O)c1cc(Cl)cc(Cl)c1` (centres undefined) was tested, and the Potency was “inactive”.
With `N#Cc1cccc(-c2csc(C(O)c3ccco3)n2)c1` (centres undefined) the Potency was inconclusive: 44.7 µM [inhibitor, partial curve, poor fit].
With `Cc1sc2c3ccsc3ccc2[n+]1C` the Potency was active: 15.8 µM.
`CCOc1ccc(N/C=C/C(=O)c2cc(C)ccc2C)cc1` was tested, and the Potency was inconclusive: 89.1 µM [inhibitor, single point].
In the case of `CNS(=O)(=O)c1cn(CC(=O)Nc2cccc(C(F)(F)F)c2)cc1S(=O)(=O)NC`, the Potency is reported as inconclusive: 178 µM [inhibitor, partial curve, poor fit].
For `Cc1ccc(CN(Cc2ccco2)C(=O)c2cccc(C)c2)cc1`, the Potency was “inactive”.
For `CCSc1ccccc1C(=O)Nc1ccc2c(c1)OCO2`, the Potency was inconclusive: 44.7 µM [inhibitor, partial curve, poor fit].
In the case of `COc1ccc(Nc2nnc(SCC(=O)c3ccccc3)s2)cc1`, the Potency is reported as inconclusive: 39.8 µM [inhibitor, partial curve, poor fit].
In the case of `COc1ccc([C@@H]2[C@@H]3C(=O)N(C(C)(C)C)C(=O)[C@@H]3[C@]3(Cc4ccccc4)C(=O)N(c4cccc(C)c4)C(=O)N23)cc1`, the Potency is reported as “inactive”.
For `Clc1ccc(CNCCN2CCCC2)cc1`, the Potency was inconclusive: 44.7 µM [inhibitor, partial curve, poor fit].
With `Cc1ncsc1C1N(C2CCN(Cc3cn(C)c4ccccc34)CC2)C(=O)C12CCCC2` (centres undefined) the Potency was “inactive”.
For `CCCCS(=N)(=O)CCC(N)C(=O)O` (centres undefined), the Potency was inconclusive: 1 µM [inhibitor, full curve, poor fit].
